Reference: the odorant receptor screen of Mainland et al. (2015)
Where “and” joins values, the source holds several entries; their conditions need not be identical. Equal values may be shown once. This is one part of the list. Single wells; the ratio to wells without odorant was worked out here, and repeats agree poorly.

Legend:
Assay in all cases: odorant receptor activation (CRE luciferase / Renilla) (fold of no-odor wells); higher = more activation
Settings in all cases: 100 µM
OR51A2 clone 1577 = tested on: OR51A2 clone 1577
[1] = tested on: OR51A4 G45C/L227P/R267G clone 1166
OR51B2 clone 1551 = tested on: OR51B2 clone 1551
[2] = tested on: OR51B4 V36I/M147T clone 1552
OR51B5 clone 1553 = tested on: OR51B5 clone 1553
OR51B6 clone 1554 = tested on: OR51B6 clone 1554
OR51D1 clone 1206 = tested on: OR51D1 clone 1206
OR51E1 S11N clone 1532 = tested on: OR51E1 S11N clone 1532
OR51E1 clone 1129 = tested on: OR51E1 clone 1129
OR51E2 clone 1205 = tested on: OR51E2 clone 1205
OR51F2 clone 1330 = tested on: OR51F2 clone 1330
OR51G1 clone 1165 = tested on: OR51G1 clone 1165
OR51G2 clone 1199 = tested on: OR51G2 clone 1199
OR51H1 clone 1187 = tested on: OR51H1 clone 1187
OR51I1 clone 1555 = tested on: OR51I1 clone 1555
OR51I2 clone 1133 = tested on: OR51I2 clone 1133
OR51J1 R75H clone 1698 = tested on: OR51J1 R75H clone 1698
OR51L1 I281M clone 1535 = tested on: OR51L1 I281M clone 1535
[3] = tested on: OR51L1 T196I/A207V clone 1533
OR51L1 clone 1183 = tested on: OR51L1 clone 1183

SMILES	odorant receptor activation (OR51A2 clone 1577)	odorant receptor activation [1]	odorant receptor activation (OR51B2 clone 1551)	odorant receptor activation [2]	odorant receptor activation (OR51B5 clone 1553)	odorant receptor activation (OR51B6 clone 1554)	odorant receptor activation (OR51D1 clone 1206)	odorant receptor activation (OR51E1 S11N clone 1532)	odorant receptor activation (OR51E1 clone 1129)	odorant receptor activation (OR51E2 clone 1205)	odorant receptor activation (OR51F2 clone 1330)	odorant receptor activation (OR51G1 clone 1165)	odorant receptor activation (OR51G2 clone 1199)	odorant receptor activation (OR51H1 clone 1187)	odorant receptor activation (OR51I1 clone 1555)	odorant receptor activation (OR51I2 clone 1133)	odorant receptor activation (OR51J1 R75H clone 1698)	odorant receptor activation (OR51L1 I281M clone 1535)	odorant receptor activation [3]	odorant receptor activation (OR51L1 clone 1183)
COc1cc(C=O)ccc1O [vanillin]	0.64	1.26	1.1	1.72	0.463	0.731	1.05	1.03	1.22	1.19	0.774	1.01	0.968	0.996	0.87	0.979	0.565	0.915	0.91	1.19
O=C1CCCCCCCCCCCCCCO1 [pentadecalactone]	0.568	0.876	1.05	0.7	0.992	0.605	1.14	0.89	0.746	0.737	0.722	0.763	0.689	0.875	0.761	0.758	0.592	0.806	0.893	0.697
CC(=O)OC1CC2CCC1(C)C2(C)C (stereo not drawn) [isobornyl acetate]	0.838	1.02	0.817	0.773	0.951	1.19	0.812	0.84 and 0.996	1.06	1.01	0.789 and 0.798	1	1.2	0.866	0.907	0.745	0.89	1.1 and 0.909	1.38 and 0.786	0.87
CC(=O)c1ccccc1 [acetophenone]	–	0.789	–	–	–	–	1.13	1.13 and 0.807	1.27	1.02	0.87	1.12	1.06	1.18	–	1.2	–	1.26 and 0.876	0.754 and 0.725	1.34
C=C(C)C1CCC2=CC(=O)CC(C)C2(C)C1 (stereo not drawn) [amyl laurate]	0.981	–	2.13	2.28	2.29	1.3	–	–	–	–	–	–	–	–	5.07	–	2.06	–	–	–
CCCCCC(=O)O [caproic acid]	0.766	1.05	1.07	1.69	0.666	0.89	1.04	1.69	1.19	1.06	0.778	0.822	0.854	0.928	1.01	1.3	0.891	1.85	2.17	1.45
CCCCCOC(C)=O [n-amyl acetate]	1.05	0.498	1.01	1.17	1.02	1.89	0.8	0.701 and 0.877	0.742	0.784	0.382	0.468	0.583	0.501	4.38	0.672	0.982	0.982 and 0.745	1.1 and 0.903	0.688
C=C(C)C1CC=CCC1 (stereo not drawn) [r-limonene]	1.16	–	1.04	0.856	1.15	0.846	1.48 and 0.837	1.14 and 0.794 and 1	1.08 and 0.773	1 and 0.711	0.723 and 0.248	1.01 and 0.356	0.859 and 0.506	1.13 and 0.561	0.908	1.06 and 0.51	0.865	0.966 and 1.1 and 0.815	1.08 and 0.943 and 0.888	0.86 and 0.628
CCCCCCCC=O [octyl aldehyde]	0.764	0.989	1.04	0.729	0.953	0.683	1.22	0.95	1.43	1.2	1	0.981	1.33	1.13	0.788	1.1	0.611	1.01	0.826	0.972
CCCCCCC=O [heptaldehyde]	0.68	–	0.737	0.954	0.786	0.629	0.554 and 0.746	–	0.587 and 1.05	0.545 and 1.17	0.446 and 0.639 and 1.1	–	0.309 and 0.915	0.339 and 0.75	0.685	–	0.933	–	–	0.556 and 0.92
C=CCSCC=C [diallyl sulfide]	0.878	0.783	0.877	0.982	0.844	1.04	1.05	1.45	1.29	0.868	1.11	0.975	1.31	0.906	0.773	0.748	0.888	1.19	1.56	0.906
CCC1(O)C2(C)CCC(C2)C1(C)C (stereo not drawn) [2-ethylfenchol]	0.832	1.43	0.835	0.773	0.924	0.962	0.886	1.05	1.42	0.733	0.628	1.2	1.66	1.15	0.786	1.5	0.748	1.27	0.977	0.824
C=CC(C)(O)CCC=C(C)C (stereo not drawn) [linalool]	0.676	1.02	0.784	0.836	0.892	0.698	0.947	0.912	1.23	1.18	0.848	0.911	1.17	0.929	0.726	1.11	0.893	1.03	1.09	1.14
CC12C=CCC1C1CCC3=CC(=O)CCC3(C)C1CC2 (stereo not drawn) [androstadienone]	–	0.9	–	–	–	–	0.694	0.718 and 1.37	0.9	1.17	0.384 and 1.05	0.719	1.11	0.837	–	0.769	–	0.805 and 1.34	1.6 and 1.31	0.599
CC(C)(O)CCCC1=CCC(C=O)CC1 (stereo not drawn) [lyral]	1	–	0.962	1.09	1.12	2.08	–	–	–	–	–	–	–	–	5.88	–	1	–	–	–
CC(C)CCC(=O)O [4-methylvaleric acid]	0.711	1.05	0.669	0.771	0.763	1.2	1.47	1.28	1.42	0.862	1.15	1.03	1.3	0.802	0.765	1.03	0.678	1.54	1.23	1.13

An excerpt from above in order of number of heavy atoms, ascending.
SMILES	odorant receptor activation (OR51A2 clone 1577)	odorant receptor activation [1]	odorant receptor activation (OR51B2 clone 1551)	odorant receptor activation [2]	odorant receptor activation (OR51B5 clone 1553)	odorant receptor activation (OR51B6 clone 1554)	odorant receptor activation (OR51D1 clone 1206)	odorant receptor activation (OR51E1 S11N clone 1532)	odorant receptor activation (OR51E1 clone 1129)	odorant receptor activation (OR51E2 clone 1205)	odorant receptor activation (OR51F2 clone 1330)	odorant receptor activation (OR51G1 clone 1165)	odorant receptor activation (OR51G2 clone 1199)	odorant receptor activation (OR51H1 clone 1187)	odorant receptor activation (OR51I1 clone 1555)	odorant receptor activation (OR51I2 clone 1133)	odorant receptor activation (OR51J1 R75H clone 1698)	odorant receptor activation (OR51L1 I281M clone 1535)	odorant receptor activation [3]	odorant receptor activation (OR51L1 clone 1183)
CCCCCC(=O)O [caproic acid]	0.766	1.05	1.07	1.69	0.666	0.89	1.04	1.69	1.19	1.06	0.778	0.822	0.854	0.928	1.01	1.3	0.891	1.85	2.17	1.45
CC(=O)c1ccccc1 [acetophenone]	–	0.789	–	–	–	–	1.13	1.13 and 0.807	1.27	1.02	0.87	1.12	1.06	1.18	–	1.2	–	1.26 and 0.876	0.754 and 0.725	1.34
CC12C=CCC1C1CCC3=CC(=O)CCC3(C)C1CC2 (stereo not drawn) [androstadienone]	–	0.9	–	–	–	–	0.694	0.718 and 1.37	0.9	1.17	0.384 and 1.05	0.719	1.11	0.837	–	0.769	–	0.805 and 1.34	1.6 and 1.31	0.599

More results follow.

SMILES	odorant receptor activation (OR51A2 clone 1577)	odorant receptor activation [1]	odorant receptor activation (OR51B2 clone 1551)	odorant receptor activation [2]	odorant receptor activation (OR51B5 clone 1553)	odorant receptor activation (OR51B6 clone 1554)	odorant receptor activation (OR51D1 clone 1206)	odorant receptor activation (OR51E1 S11N clone 1532)	odorant receptor activation (OR51E1 clone 1129)	odorant receptor activation (OR51E2 clone 1205)	odorant receptor activation (OR51F2 clone 1330)	odorant receptor activation (OR51G1 clone 1165)	odorant receptor activation (OR51G2 clone 1199)	odorant receptor activation (OR51H1 clone 1187)	odorant receptor activation (OR51I1 clone 1555)	odorant receptor activation (OR51I2 clone 1133)	odorant receptor activation (OR51J1 R75H clone 1698)	odorant receptor activation (OR51L1 I281M clone 1535)	odorant receptor activation [3]	odorant receptor activation (OR51L1 clone 1183)
C=C(C)C1CC=C(C)C(=O)C1 (stereo not drawn) [r-carvone]	0.715	1.05	1.08	0.838	0.927	0.737	1.41	1.01	0.961	0.928	0.645	1.05	0.823	1.32	1.01	0.83	0.69	1.02	1.02	0.981
CC(=O)OC(C)(C)C1CC=C(C)CC1 (stereo not drawn) [terpinyl acetate]	0.776	1.22	0.959	1.06	1.06	2.03	1.32	1.03	1.23	0.92	0.775	1.22	1.28	1.2	5.58	1.14	1.02	1.17	0.896	1.18
CCCC(=O)O [butyric acid]	0.67	1.21	1.15	1.89	0.602	0.896	1.2	1.45	1.13	1.28	0.833	0.986	0.913	1	1.02	1.25	1.08	0.866	0.942	1.07
CC1=NC(C)SC1C (stereo not drawn)	–	1.09	–	–	–	–	1.08	0.906 and 1.05	0.695	1.1	1.08	0.587	0.867	0.931	–	0.638	–	0.85 and 0.727	1.14 and 0.928	1.06
C=CCc1ccc(O)c(OC)c1 [eugenol]	1.35	3.27 and 1.37	1.34	1.31	1.17	1.88	3.15 and 1.29	1.73 and 1.04 and 1.43	2.11 and 1.31	1.52 and 1.29	1.56 and 1.57	3.06 and 1.65	1.47 and 1.32	2.62 and 1.22	1.15	–	1.05	1.18 and 1.06 and 1.42	1.39 and 0.858 and 1.71	2.12 and 1.28
CC(C)C(=O)O [isobutyric acid]	0.783	0.825	0.933	0.946	1.08	1.15	0.85	1.11 and 1.04	1.12	1.42	1.05 and 0.866	0.877	1.07	0.909	0.821	0.764	0.809	0.881 and 0.74	1.2 and 0.729	0.869
CCCCCC(C)=O [2-heptanone]	–	0.935	–	–	–	–	1.23	0.989 and 0.713	1.04	1.18	1.42	0.922	1.04	1.28	–	1.1	–	1.08 and 0.655	0.927 and 0.646	0.958
CC(C)(C)c1ccc(CCC=O)cc1 [bourgeonal]	–	0.798	–	–	–	–	0.68	0.776	0.684	0.765	0.577	0.615	0.654	0.674	–	0.889	–	0.886	0.568	0.663
COC(=O)c1ccccc1 [methyl benzoate]	–	0.556	–	–	–	–	0.997	0.794 and 1.2	1.17	0.956	0.628	0.814	0.771	0.923	–	0.879	–	1.04 and 0.907	0.901 and 1	1
C=CCc1ccc(OC)c(OC)c1 [eugenol methyl ether]	0.589	1.25	0.737	0.86	1.04	0.532	1.36	1.37	1.68	1.52	1.47	1.51	1.4	1.28	1	1.05	0.577	1.47	1.7	1.57
O=C1CCCCC1 [Cyclohexanone]	–	0.597	–	–	–	–	0.878	0.842 and 1.04	0.886	0.847	0.7	0.743	0.596	0.87	–	0.765	–	0.965 and 0.818	0.912 and 1.05	0.97
CCCCCCOC(=O)CCC [hexyl butyrate]	0.849	0.639	0.775	0.912	0.748	0.747	0.803	0.998 and 0.837	1.01	0.981	1.11 and 0.785	0.896	0.846	0.908	0.774	0.936	0.794	1.35 and 0.807	1.41 and 0.838	0.914
CC12C=CCC1C1CCC3CC(=O)CCC3(C)C1CC2 (stereo not drawn) [androstenone]	–	5.76	–	–	–	–	6.49	1.07	1.11	2.77	0.947	8.34	6.97	5.67	–	6.36	–	0.95	1.22	2.35
CC1COCc2cc3c(cc21)C(C)(C)C(C)C3(C)C (stereo not drawn) [galaxolide]	–	0.796	0.269 and 0.76	0.986 and 1.46	1.04 and 1.14	–	0.595	1.04 and 1.34	0.806	1.06	–	0.91	0.94	0.819	–	0.877	–	–	1.84 and 1.67	0.762
CCCCCCCOC(C)=O [heptyl acetate]	0.859	0.869	0.656	0.861	0.698	0.719	1.04	0.887 and 1.28	1.18	1.24	–	0.804	0.939	0.882	0.671	1.01	0.761	0.837 and 1.23	1.12 and 1.01	0.687
